PubChem BioAssay AID504764 | Drosophila RNAi Screening Center | 2011
The deposit covers about 22,000 reagents; below is a random part of those with a known target gene and a result. Of all reagents, 403 (1.9%) are marked active. 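Unnormalised raw counts per well; ratio z-scores behind the hit calls and whether each hit raises or lowers signal are not deposited.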 Entries without a mark were called inactive. No sequences are given here. The record does not give: the amount of reagent.

Screen: 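Genome-wide screen for regulators of Notch-driven gene expression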 (primary screen)
System: Drosophila Kc167 cells
Reagents: long dsRNA against Drosophila genes
Duration: about 5 days (4 days dsRNA, then 24 h after transfection)
Challenge: transfection of constitutively active membrane-tethered Notch lacking the extracellular domain, read 24 h later
Read-out: 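Light from a Notch-responsive E(spl)m3 luciferase reporter under active Notch, with control-promoter and no-Notch reporter wells to normalise; raw counts from paired wells a and b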
Direction: induced reporter light, run 1, well a and induced reporter light, run 1, well b: higher = more light from the Notch target reporter with active Notch; control promoter light, run 1, well a and control promoter light, run 1, well b: higher = more light from the viral control promoter (cell number, transfection, viability); uninduced reporter light, run 1, well a: higher = more light from the Notch target reporter without active Notch
Call rule: 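Wells with low control signal or poorly matching duplicates excluded; duplicates averaged; per source plate, z beyond ±2 for induced/control log2 ratio or beyond ±1.8 for induced/uninduced marks a hit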
Calls: active = modifier hit (raised or lowered Notch signal); inactive = not a hit

After knock-down of Prps [DRSC08994], the record shows induced reporter light, run 1, well a = 2.08e5; induced reporter light, run 1, well b = 1.99e5; control promoter light, run 1, well a = 2.16e5; control promoter light, run 1, well b = 1.91e5; uninduced reporter light, run 1, well a = 15032.
Against Prps [DRSC10707], the entry reads induced reporter light, run 1, well a = 1.01e5; induced reporter light, run 1, well b = 97180; control promoter light, run 1, well a = 1.68e5; control promoter light, run 1, well b = 1.15e5; uninduced reporter light, run 1, well a = 6605.
Prps [DRSC10708] gave induced reporter light, run 1, well a = 1.40e5; induced reporter light, run 1, well b = 1.20e5; control promoter light, run 1, well a = 1.67e5; control promoter light, run 1, well b = 1.37e5; uninduced reporter light, run 1, well a = 6030.
CYTB (retired record) [DRSC21272] gave induced reporter light, run 1, well a = 1.12e5; induced reporter light, run 1, well b = 1.12e5; control promoter light, run 1, well a = 1.15e5; control promoter light, run 1, well b = 1.51e5; uninduced reporter light, run 1, well a = 11990.
Prp38 [DRSC07060] scored induced reporter light, run 1, well a = 1.68e5; induced reporter light, run 1, well b = 1.64e5; control promoter light, run 1, well a = 1.35e5; control promoter light, run 1, well b = 1.29e5; uninduced reporter light, run 1, well a = 10495.
Fer2LCH [DRSC16672] scored induced reporter light, run 1, well a = 1.34e5; induced reporter light, run 1, well b = 1.17e5; control promoter light, run 1, well a = 1.99e5; control promoter light, run 1, well b = 2.20e5; uninduced reporter light, run 1, well a = 12332.
TER94 [DRSC07560] gave induced reporter light, run 1, well a = 44345; induced reporter light, run 1, well b = 47160; control promoter light, run 1, well a = 36180; control promoter light, run 1, well b = 31355; uninduced reporter light, run 1, well a = 4275.
CG33221 (retired record) [DRSC21201] gave induced reporter light, run 1, well a = 80380; induced reporter light, run 1, well b = 67660; control promoter light, run 1, well a = 1.01e5; control promoter light, run 1, well b = 70070; uninduced reporter light, run 1, well a = 5790.
Against CG16772 [DRSC02516], the entry reads induced reporter light, run 1, well a = 50730; induced reporter light, run 1, well b = 47775; control promoter light, run 1, well a = 44675; control promoter light, run 1, well b = 46275; uninduced reporter light, run 1, well a = 2825.
Depletion of ATPsyngamma [DRSC14094] gave: induced reporter light, run 1, well a = 37535; induced reporter light, run 1, well b = 33385; control promoter light, run 1, well a = 53805; control promoter light, run 1, well b = 53250; uninduced reporter light, run 1, well a = 2910.
Against CG14570 [DRSC11731], the entry reads induced reporter light, run 1, well a = 1.39e5; induced reporter light, run 1, well b = 1.07e5; control promoter light, run 1, well a = 1.36e5; control promoter light, run 1, well b = 1.27e5; uninduced reporter light, run 1, well a = 8160.
Knock-down of TwdlZ [DRSC19154] resulted in: induced reporter light, run 1, well a = 95020; induced reporter light, run 1, well b = 98600; control promoter light, run 1, well a = 86890; control promoter light, run 1, well b = 76250; uninduced reporter light, run 1, well a = 7015.

Individual results from above:
Result for CG14570 [DRSC11731] under “induced reporter light, run 1, well a”: 1.39e5
TwdlZ [DRSC19154], control promoter light, run 1, well b → 76250
